Measured values taken from the supplement of paper PMC10849652.
This is one part of the list.

Protein sequences, listed by entry. Tags and fused reporters are not part of them. Lines headed by an entry give the natural chain unless they say otherwise; changes in a name come on top.
UniProt Q04760: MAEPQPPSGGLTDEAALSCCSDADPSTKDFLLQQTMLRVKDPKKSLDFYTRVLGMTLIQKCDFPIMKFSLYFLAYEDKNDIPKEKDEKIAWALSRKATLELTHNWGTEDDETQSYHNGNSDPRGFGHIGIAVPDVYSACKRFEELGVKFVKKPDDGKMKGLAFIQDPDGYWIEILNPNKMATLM
UniProt Q9BXV9: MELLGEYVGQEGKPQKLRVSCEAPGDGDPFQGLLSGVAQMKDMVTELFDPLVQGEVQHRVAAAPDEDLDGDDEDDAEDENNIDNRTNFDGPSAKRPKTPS
UniProt Q86SX6: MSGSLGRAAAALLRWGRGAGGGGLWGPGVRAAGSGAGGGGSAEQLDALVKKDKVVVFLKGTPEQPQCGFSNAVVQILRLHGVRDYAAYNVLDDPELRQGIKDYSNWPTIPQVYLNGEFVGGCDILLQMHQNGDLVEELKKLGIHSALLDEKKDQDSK
UniProt P00367: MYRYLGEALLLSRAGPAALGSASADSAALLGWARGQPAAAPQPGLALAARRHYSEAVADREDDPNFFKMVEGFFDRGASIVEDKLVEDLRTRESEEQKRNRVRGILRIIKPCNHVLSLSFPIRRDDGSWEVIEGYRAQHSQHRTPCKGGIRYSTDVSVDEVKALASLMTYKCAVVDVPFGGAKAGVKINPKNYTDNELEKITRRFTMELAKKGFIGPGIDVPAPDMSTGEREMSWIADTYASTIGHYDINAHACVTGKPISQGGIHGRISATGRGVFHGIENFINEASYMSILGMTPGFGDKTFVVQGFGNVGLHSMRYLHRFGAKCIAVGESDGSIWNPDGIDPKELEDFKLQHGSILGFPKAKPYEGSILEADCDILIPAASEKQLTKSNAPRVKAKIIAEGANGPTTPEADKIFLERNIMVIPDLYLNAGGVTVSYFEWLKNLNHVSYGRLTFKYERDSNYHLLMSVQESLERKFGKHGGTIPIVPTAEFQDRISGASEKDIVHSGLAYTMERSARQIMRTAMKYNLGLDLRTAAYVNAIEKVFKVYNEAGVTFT
UniProt Q03113, whole entry, looked up: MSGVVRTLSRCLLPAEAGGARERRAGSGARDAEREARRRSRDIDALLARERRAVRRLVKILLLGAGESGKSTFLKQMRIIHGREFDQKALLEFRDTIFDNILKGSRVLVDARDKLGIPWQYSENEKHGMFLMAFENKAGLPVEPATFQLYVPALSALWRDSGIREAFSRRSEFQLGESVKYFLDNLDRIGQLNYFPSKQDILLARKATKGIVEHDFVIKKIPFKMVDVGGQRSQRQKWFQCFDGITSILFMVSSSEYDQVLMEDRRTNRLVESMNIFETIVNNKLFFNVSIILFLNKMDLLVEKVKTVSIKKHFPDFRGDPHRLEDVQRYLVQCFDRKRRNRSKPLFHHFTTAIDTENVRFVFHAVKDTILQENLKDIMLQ
UniProt P46926: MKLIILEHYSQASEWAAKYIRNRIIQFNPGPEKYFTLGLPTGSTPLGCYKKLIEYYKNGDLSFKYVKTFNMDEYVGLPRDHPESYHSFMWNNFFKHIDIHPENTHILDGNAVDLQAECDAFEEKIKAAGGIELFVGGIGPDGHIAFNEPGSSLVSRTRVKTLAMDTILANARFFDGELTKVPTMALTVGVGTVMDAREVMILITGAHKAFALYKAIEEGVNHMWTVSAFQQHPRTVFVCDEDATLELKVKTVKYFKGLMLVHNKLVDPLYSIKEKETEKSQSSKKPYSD
UniProt Q9HC38: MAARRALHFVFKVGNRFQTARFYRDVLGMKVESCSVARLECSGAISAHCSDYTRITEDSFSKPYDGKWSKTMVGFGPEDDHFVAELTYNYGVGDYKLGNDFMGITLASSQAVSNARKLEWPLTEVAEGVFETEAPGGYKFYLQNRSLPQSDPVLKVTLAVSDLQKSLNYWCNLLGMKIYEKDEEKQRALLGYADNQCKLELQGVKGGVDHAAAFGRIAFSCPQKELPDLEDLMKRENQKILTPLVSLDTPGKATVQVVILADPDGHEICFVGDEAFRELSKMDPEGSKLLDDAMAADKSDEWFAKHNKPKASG
UniProt Q9NWU2, whole entry, looked up: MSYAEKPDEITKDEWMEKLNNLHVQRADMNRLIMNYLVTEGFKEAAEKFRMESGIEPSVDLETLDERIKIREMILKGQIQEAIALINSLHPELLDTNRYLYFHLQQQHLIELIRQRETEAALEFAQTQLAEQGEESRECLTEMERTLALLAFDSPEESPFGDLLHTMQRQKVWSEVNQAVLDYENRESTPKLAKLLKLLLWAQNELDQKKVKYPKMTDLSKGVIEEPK
UniProt Q08379: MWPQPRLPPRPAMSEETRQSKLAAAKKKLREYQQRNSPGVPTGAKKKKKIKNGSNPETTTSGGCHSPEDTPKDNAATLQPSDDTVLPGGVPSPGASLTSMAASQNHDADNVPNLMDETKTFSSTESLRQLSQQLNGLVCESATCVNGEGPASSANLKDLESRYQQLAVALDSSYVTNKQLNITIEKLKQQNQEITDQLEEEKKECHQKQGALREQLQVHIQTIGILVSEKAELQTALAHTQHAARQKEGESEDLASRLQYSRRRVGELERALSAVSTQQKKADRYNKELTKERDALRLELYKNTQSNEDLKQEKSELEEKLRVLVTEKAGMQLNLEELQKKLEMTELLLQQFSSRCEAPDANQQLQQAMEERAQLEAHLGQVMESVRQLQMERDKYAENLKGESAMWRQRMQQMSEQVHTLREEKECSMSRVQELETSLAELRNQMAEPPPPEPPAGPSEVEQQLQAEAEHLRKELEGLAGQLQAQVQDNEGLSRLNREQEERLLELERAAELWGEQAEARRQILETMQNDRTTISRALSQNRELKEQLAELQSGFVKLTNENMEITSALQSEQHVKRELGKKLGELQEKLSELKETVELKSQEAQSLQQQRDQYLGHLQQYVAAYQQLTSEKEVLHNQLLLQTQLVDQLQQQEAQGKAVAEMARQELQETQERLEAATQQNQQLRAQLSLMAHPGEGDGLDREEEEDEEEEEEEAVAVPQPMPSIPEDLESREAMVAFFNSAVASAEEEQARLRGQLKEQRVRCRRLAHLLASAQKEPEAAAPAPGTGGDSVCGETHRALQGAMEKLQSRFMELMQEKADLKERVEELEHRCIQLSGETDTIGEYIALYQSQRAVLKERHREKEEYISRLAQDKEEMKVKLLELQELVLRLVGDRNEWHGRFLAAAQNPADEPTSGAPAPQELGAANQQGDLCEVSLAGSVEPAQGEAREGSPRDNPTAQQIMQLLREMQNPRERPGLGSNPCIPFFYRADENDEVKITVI
UniProt O00461: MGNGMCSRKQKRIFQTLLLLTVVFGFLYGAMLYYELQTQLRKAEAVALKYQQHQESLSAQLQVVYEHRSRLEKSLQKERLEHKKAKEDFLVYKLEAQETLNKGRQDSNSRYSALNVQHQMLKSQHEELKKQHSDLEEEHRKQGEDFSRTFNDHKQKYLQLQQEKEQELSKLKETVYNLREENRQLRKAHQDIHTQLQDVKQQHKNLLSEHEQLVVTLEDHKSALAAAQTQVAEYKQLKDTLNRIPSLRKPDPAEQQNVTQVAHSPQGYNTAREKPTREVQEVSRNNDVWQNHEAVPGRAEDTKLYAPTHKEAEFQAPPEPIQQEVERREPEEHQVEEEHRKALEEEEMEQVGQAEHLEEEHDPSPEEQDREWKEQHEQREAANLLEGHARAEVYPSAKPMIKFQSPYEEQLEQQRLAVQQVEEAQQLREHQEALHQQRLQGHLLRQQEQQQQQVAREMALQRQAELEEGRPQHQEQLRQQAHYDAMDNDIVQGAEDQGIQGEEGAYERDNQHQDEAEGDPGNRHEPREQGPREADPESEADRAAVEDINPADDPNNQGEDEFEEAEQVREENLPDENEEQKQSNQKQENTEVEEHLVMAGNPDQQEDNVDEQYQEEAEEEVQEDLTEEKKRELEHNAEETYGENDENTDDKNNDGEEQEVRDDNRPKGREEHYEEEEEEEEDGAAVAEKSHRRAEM
UniProt Q8IXQ4: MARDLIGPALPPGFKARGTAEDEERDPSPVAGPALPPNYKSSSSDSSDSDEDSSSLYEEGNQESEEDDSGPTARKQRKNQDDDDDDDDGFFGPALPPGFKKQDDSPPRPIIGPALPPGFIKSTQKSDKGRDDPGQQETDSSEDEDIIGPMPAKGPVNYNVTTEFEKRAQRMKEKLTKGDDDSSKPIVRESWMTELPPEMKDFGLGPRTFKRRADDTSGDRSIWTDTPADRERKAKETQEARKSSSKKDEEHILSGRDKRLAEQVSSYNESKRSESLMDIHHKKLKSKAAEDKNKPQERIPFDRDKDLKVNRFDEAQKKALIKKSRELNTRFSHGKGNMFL
UniProt P06280: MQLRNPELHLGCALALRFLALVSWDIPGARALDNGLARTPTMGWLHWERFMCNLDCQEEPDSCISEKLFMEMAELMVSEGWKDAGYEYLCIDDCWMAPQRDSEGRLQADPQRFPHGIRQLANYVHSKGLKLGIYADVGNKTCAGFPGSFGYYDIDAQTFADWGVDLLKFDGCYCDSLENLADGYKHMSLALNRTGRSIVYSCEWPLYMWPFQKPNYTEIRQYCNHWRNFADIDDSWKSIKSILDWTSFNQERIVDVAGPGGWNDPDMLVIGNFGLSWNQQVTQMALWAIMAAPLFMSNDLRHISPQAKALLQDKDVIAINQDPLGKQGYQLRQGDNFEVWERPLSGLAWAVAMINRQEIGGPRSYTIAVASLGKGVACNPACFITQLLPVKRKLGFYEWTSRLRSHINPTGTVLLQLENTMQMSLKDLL
UniProt Q9NZD2: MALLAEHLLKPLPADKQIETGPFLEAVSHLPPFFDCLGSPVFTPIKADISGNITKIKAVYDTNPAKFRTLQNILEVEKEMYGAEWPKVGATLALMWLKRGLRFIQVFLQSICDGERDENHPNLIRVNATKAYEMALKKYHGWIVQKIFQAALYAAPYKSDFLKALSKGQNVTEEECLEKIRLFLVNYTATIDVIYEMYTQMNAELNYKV
UniProt P08754, whole entry, looked up: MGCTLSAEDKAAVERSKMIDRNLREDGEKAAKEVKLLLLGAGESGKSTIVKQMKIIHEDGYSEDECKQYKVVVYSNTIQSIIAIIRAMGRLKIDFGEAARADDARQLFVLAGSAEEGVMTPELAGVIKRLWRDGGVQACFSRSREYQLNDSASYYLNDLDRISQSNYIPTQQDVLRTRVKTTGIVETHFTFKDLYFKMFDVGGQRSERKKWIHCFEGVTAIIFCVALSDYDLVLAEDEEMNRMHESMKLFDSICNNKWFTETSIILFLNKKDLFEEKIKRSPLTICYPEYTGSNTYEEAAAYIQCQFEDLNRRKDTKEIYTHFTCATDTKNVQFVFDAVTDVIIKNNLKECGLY
UniProt P49448: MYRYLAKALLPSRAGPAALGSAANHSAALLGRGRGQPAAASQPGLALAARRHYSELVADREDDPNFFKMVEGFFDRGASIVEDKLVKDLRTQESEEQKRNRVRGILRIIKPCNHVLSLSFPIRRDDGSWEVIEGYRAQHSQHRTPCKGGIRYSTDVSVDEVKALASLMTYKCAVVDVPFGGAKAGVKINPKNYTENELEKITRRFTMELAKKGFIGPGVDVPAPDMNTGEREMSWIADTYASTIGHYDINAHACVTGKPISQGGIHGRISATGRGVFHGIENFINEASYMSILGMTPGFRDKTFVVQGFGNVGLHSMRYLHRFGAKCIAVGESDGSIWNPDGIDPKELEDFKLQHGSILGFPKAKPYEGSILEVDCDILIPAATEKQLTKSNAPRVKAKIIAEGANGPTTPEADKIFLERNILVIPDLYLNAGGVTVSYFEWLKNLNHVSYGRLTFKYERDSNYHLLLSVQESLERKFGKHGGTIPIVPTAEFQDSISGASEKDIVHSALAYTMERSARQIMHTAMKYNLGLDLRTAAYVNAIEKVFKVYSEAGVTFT
UniProt P36915, whole entry, looked up: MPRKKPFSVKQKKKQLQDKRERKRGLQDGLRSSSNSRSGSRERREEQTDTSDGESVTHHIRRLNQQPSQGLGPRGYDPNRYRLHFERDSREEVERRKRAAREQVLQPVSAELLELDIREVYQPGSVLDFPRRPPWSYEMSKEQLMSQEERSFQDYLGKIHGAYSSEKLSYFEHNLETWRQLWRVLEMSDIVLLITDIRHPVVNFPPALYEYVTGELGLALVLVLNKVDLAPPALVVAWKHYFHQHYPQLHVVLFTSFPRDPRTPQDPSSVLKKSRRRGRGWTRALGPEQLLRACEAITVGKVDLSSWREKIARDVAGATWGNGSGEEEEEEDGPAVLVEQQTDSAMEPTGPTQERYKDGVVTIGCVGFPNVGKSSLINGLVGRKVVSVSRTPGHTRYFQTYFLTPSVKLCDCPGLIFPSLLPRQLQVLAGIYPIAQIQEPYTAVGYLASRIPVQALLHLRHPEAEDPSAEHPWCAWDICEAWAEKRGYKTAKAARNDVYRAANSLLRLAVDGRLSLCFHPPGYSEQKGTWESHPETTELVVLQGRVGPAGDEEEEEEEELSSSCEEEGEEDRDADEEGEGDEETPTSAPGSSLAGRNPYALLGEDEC

Columns and labels:
Experiment in all cases: log2 fold change, soluble protein after heating vs DMSO (PISA); higher = thermal stabilisation; K562 cells, 10 uM, 30 min; active = over 0.2 and 3.5 SD of the protein, either way, in both replicates (recomputed)
[1] = compound: CC[C@@H]1C(=O)N(C)c2cnc(Nc3ccc(C(=O)NC4CCN(C)CC4)cc3OC)nc2N1C1CCCC1
Method in brief: (§1)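 K562 cells at 2×10^6 cells/mL were treated for 30 min with 10 μM compound, and aliquots were heated for 3 min over 48°C-58°C before pooling. Extraction used PBS with 0.5% NP-40 at 4°C, and soluble protein was the supernatant after 21,000xg for 90 min, measured by TMTpro 16plex LC-MS/MS with channel sums equalised. Thermal stability values, relative to control samples and from duplicates, are log2 fold changes.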

volasertib = compound: CC[C@@H]1C(=O)N(C)c2cnc(Nc3ccc(C(=O)N[C@H]4CC[C@H](N5CCN(CC6CC6)CC5)CC4)cc3OC)nc2N1C(C)C [volasertib]
Method in brief: as §1

[2] = compound: CC[C@H](C)N1C=C(C2=C(C=C(C=C21)C3=CN=C(C=C3)N4CCNCC4)C(=O)NCC5=C(C=C(NC5=O)C)C)C
Method in brief: as §1

epoxomicin = compound: CC[C@H](C)[C@@H](C(=O)N[C@@H]([C@@H](C)O)C(=O)N[C@@H](CC(C)C)C(=O)[C@]1(CO1)C)NC(=O)[C@H]([C@@H](C)CC)N(C)C(=O)C [epoxomicin]
Method in brief: as §1

[3] = compound: CCn1c(C(=O)N(C2CC2)C2CC2)cc2c3c(ncn3C)c(Nc3cc(C)n(C)n3)nc21
Method in brief: as §1

[4] = compound: CCn1cc(-c2ccnc3[nH]c(-c4cccc(CN(C)C)c4)cc23)c(-c2ccc(NC(=O)N(C)C)cc2)n1
Method in brief: as §1

[5] = compound: CN(C)CC(=O)Nc1ccc2[nH]c(=O)c3ccccc3c2c1
Method in brief: as §1

rosiglitazone = compound: CN(CCOC1=CC=C(C=C1)C[C@H]2C(=O)NC(=O)S2)C3=CC=CC=N3 (racemic) [rosiglitazone]
Method in brief: as §1

[6] = compound: CN1C2=C(C3=C1C(=O)N(N=C3)CC4=CC(=CC=C4)N)SC(=C2)S(=O)C
Method in brief: as §1

[7] = compound: CN1CCC(CNc2ccc3ncc(-c4cccc(OC(F)(F)F)c4)n3n2)CC1
Method in brief: as §1

Measured: log2 fold change

GOLGA3 (UniProt Q08378)
inactive: [1] -0.009 | volasertib -0.001 | [2] 0.028 | epoxomicin -0.001 | [3] -0.027 | [4] -0.005 | [5] 0.04 | rosiglitazone 0.014 | [6] -0.042 | [7] 0.071

GLO1 (UniProt Q04760)
inactive: [1] -0.008 | volasertib 0.068 | [2] -0.043 | epoxomicin 0.021 | [3] 0.05 | [4] -0.004 | [5] -0.004 | rosiglitazone -0.044 | [6] -0.051 | [7] 0.011

GRPEL1 (UniProt Q9HAV7)
inactive: [1] -0.001 | volasertib -0.025 | [2] 0.027 | epoxomicin 0.005 | [3] 0.014 | [4] -0.016 | [5] 0 | rosiglitazone 0.033 | [6] -0.083 | [7] -0.021

GP1BB isoform 2 (UniProt P13224)
inactive: [1] -0.111 | volasertib -0.075 | [2] -0.034 | epoxomicin -0.042 | [3] 0.021 | [4] -0.007 | [5] -0.007 | rosiglitazone 0.035 | [6] 0.01 | [7] -0.164

GON7 (UniProt Q9BXV9)
inactive: [1] 0.032 | volasertib 0.036 | [2] -0.056 | epoxomicin 0.069 | [3] -0.09 | [4] 0.057 | [5] 0.024 | rosiglitazone 0.019 | [6] 0.013 | [7] 0.104

GLRX5 (UniProt Q86SX6)
inactive: [1] -0.04 | volasertib -0.039 | [2] -0.048 | epoxomicin 0.059 | [3] 0.034 | [5] 0.099 | rosiglitazone -0.016 | [6] -0.045

GLUD1 (UniProt P00367)
inactive: [1] 0.146 | volasertib 0.25 | [2] 0.034 | epoxomicin 0.024 | [4] -0.054 | [5] 0 | [6] -0.128 | [7] 0.102

GNA12 (UniProt Q03113)
inactive: [1] 0.148 | volasertib 0.104 | [2] -0.318 | epoxomicin -0.091 | [3] -0.095 | [4] 0.255 | [5] -0.077 | rosiglitazone 0.05 | [6] 0.052 | [7] -0.035

GNPDA1 (UniProt P46926)
inactive: [1] 0.052 | volasertib 0.056 | [2] -0.048 | epoxomicin -0.025 | [3] 0.024 | [4] 0.003 | [5] -0.021 | rosiglitazone -0.002 | [6] -0.069 | [7] -0.055

GLOD4 isoform 2 (UniProt Q9HC38)
inactive: [1] -0.088 | volasertib -0.05 | [2] 0.082 | epoxomicin 0.019 | [3] -0.015 | [4] -0.075 | [5] 0.019 | rosiglitazone 0.065 | [6] -0.093 | [7] -0.132

GID8 (UniProt Q9NWU2)
inactive: [1] -0.071 | volasertib -0.113 | [2] -0.004 | epoxomicin -0.033 | [3] 0.01 | [4] 0.186 | [5] -0.002 | rosiglitazone -0.01 | [6] -0.003 | [7] 0.011

GOLGA2 (UniProt Q08379)
inactive: [1] 0.051 | volasertib -0.157 | [2] 0.03 | epoxomicin -0.098 | [3] 0.01 | [4] 0.038 | [5] -0.011 | rosiglitazone 0.023 | [6] 0.177 | [7] 0.032

GOLIM4 (UniProt O00461)
inactive: [1] -0.169 | volasertib -0.215 | [2] -0.013 | epoxomicin 0.005 | [3] 0.054 | [4] 0.008 | [5] -0.019 | rosiglitazone 0.01 | [6] -0.048 | [7] -0.08

GPALPP1 (UniProt Q8IXQ4)
inactive: [1] 0.056 | volasertib 0.068 | [2] -0.024 | epoxomicin -0.02 | [3] -0.015 | [4] -0.038 | [5] -0.032 | rosiglitazone 0.006 | [6] -0.09 | [7] -0.061

GOT2 (UniProt P00505)
inactive: [1] 0.004 | volasertib 0.053 | [2] -0.014 | epoxomicin -0.003 | [3] 0.024 | [4] -0.001 | [5] -0.008 | rosiglitazone -0.035 | [6] -0.027 | [7] -0.002

GLG1 isoform 2 (UniProt Q92896)
inactive: [1] 0.014 | volasertib -0.071 | [2] -0.039 | epoxomicin 0.04 | [3] -0.007 | [4] -0.01 | [5] -0.033 | rosiglitazone -0.003 | [6] -0.037 | [7] 0.042

GRAP2 (UniProt O75791)
inactive: [1] -0.127 | volasertib -0.267 | [2] -0.022 | epoxomicin 0.042 | [3] 0.023 | [4] -0.061 | [5] 0.138 | rosiglitazone -0.059 | [6] -0.016 | [7] -0.121

GPAT3 (UniProt Q53EU6)
inactive: [1] 0.015 | volasertib -0.13 | [2] 0.034 | epoxomicin 0.023 | [3] 0.047 | [5] 0.008 | rosiglitazone 0.032 | [6] -0.001

GLA (UniProt P06280)
active: [1] -0.449 | volasertib -0.911 | [7] -0.535
inactive: [2] 0.002 | epoxomicin 0.026 | [4] 0.03 | [5] -0.001 | [6] 0.005

GNAS (UniProt Q5JWF2)
inactive: [1] 0.125 | volasertib 0.164 | [2] 0.032 | epoxomicin 0.011 | [4] 0 | [5] -0.02 | [6] -0.03 | [7] 0.057

GPKOW (UniProt Q92917)
inactive: [1] -0.056 | volasertib -0.217 | [2] 0.101 | epoxomicin -0.021 | [4] -0.049 | [5] 0.039 | [6] 0.022 | [7] -0.248

GLTP (UniProt Q9NZD2)
inactive: [1] 0.064 | volasertib -0.021 | [2] 0.012 | [3] -0.019 | [4] 0.023 | [5] 0.006 | rosiglitazone -0.125 | [7] 0.203

GOLGB1 isoform 2 (UniProt Q14789)
inactive: [1] 0.009 | volasertib -0.17 | [2] -0.052 | epoxomicin -0.185 | [4] 0.05 | [5] -0.061 | [6] 0.148 | [7] -0.009

GNAI3 (UniProt P08754)
inactive: [1] 0.089 | volasertib 0.147 | [2] -0.011 | epoxomicin 0.014 | [4] -0.071 | [5] -0.012 | [6] -0.046 | [7] 0.075

GLUD2 (UniProt P49448)
inactive: [1] 0.13 | volasertib 0.252 | [2] 0.068 | epoxomicin -0.07 | [4] -0.219 | [5] 0.021 | [6] -0.022 | [7] 0.071

Reprinted at random: 2 records from the list.
GPKOW (UniProt Q92917)
inactive: [1] -0.056 | volasertib -0.217 | [2] 0.101 | epoxomicin -0.021 | [4] -0.049 | [5] 0.039 | [6] 0.022 | [7] -0.248

GLUD2 (UniProt P49448)
inactive: [1] 0.13 | volasertib 0.252 | [2] 0.068 | epoxomicin -0.07 | [4] -0.219 | [5] 0.021 | [6] -0.022 | [7] 0.071

Remaining list, next part:

GNL1 (UniProt P36915)
active: volasertib -0.229
inactive: [1] -0.095 | [2] 0.027 | epoxomicin 0.008 | [4] -0.1 | [5] 0.024 | [6] -0.083 | [7] -0.053

GOLM1 (UniProt Q8NBJ4)
inactive: [1] -0.04 | volasertib 0.032 | [2] -0.175 | [3] 0.062 | [5] -0.072 | rosiglitazone 0.036
